This note sets out measurements from paper PMC6755995.

Sequences of proteins named here, by UniProt entry; tags and fusion partners are left off.
UniProt P10275: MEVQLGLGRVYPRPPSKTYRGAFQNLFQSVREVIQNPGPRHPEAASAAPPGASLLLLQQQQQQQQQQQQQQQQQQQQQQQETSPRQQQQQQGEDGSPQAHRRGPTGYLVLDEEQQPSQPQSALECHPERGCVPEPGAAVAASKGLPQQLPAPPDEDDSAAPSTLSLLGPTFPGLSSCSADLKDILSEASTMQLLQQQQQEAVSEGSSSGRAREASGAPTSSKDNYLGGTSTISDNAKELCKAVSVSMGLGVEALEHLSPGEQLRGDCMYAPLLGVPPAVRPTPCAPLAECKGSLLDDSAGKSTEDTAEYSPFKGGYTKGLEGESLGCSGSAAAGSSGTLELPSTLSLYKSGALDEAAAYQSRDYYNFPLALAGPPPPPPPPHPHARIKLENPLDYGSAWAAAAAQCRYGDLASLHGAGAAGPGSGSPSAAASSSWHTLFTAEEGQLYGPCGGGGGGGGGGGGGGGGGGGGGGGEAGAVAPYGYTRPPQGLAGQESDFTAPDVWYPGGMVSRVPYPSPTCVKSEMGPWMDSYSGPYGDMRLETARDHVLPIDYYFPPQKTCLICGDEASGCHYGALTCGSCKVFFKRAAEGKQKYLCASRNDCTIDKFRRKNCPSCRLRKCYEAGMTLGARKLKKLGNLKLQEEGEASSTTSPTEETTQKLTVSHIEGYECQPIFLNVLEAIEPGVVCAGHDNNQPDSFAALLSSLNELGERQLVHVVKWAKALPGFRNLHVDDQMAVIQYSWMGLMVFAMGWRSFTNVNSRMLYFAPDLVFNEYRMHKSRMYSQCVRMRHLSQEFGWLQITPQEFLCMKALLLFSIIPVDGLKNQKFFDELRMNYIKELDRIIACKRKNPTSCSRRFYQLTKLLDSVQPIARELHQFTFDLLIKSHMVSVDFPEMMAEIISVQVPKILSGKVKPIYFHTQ
UniProt P14618: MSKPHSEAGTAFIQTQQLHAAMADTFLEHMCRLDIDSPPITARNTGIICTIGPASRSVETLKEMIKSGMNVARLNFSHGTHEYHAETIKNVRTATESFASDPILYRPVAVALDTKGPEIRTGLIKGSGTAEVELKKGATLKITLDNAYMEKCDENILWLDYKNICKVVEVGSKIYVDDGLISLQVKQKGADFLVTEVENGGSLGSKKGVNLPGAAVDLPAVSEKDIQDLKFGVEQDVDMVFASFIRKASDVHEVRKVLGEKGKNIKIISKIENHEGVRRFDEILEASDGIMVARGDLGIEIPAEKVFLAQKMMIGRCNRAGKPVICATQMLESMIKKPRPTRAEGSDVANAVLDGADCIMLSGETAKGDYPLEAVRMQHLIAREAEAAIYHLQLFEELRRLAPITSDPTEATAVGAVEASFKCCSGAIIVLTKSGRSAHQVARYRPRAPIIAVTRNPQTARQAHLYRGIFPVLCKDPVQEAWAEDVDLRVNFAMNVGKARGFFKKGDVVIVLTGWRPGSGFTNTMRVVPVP
UniProt Q8N371: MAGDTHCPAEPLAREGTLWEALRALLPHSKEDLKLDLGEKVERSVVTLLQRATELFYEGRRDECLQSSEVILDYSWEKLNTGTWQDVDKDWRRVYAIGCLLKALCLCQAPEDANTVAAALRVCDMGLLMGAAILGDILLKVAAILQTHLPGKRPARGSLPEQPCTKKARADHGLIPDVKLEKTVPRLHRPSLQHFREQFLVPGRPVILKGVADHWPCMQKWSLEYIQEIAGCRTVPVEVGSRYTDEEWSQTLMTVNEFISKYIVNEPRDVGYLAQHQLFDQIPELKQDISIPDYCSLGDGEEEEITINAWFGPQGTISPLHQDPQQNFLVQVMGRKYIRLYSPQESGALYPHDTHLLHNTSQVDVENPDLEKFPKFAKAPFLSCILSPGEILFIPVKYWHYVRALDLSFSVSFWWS

These are yes or no findings as the source states them, for the method shown. In cells and extracts the contact can be indirect. Some entries that bind do so weakly or less than the wild type.

Holding throughout (experiment): co-IP; endogenous proteins in LNCaP cell lysate; immunoprecipitation and immunoblotting with PKM2, KDM8 and AR antibodies; control IgG
Assay [1] concerns the target AR (androgen receptor), endogenous in LNCaP cells (human (endogenous in LNCaP)) (UniProt P10275).
The target in assay [2] is PKM2 (pyruvate kinase M2), endogenous in LNCaP cells (human (endogenous in LNCaP)) (UniProt P14618).
For assay [3], the target named is KDM8/JMJD5, endogenous in LNCaP cells (human (endogenous in LNCaP)) (UniProt Q8N371).

With “KDM8/JMJD5, endogenous in LNCaP cells (from UniProt Q8N371 1-416)”, the binding result in assay [1] and in assay [2] was “binds” throughout. Turning to “PKM2 (pyruvate kinase M2), endogenous in LNCaP cells (from UniProt P14618 1-531)”, in assay [3], the binding result is “binds”.
